Assay results from the RepoRT retention time repository.

Assay: HILIC, Waters ACQUITY UPLC BEH Amide, 100 × 2.1 mm, 1.7 µm; A: water + 0.125% formic acid + 10 mM ammonium formate; B: 5% water + 95% acetonitrile + 0.125% formic acid + 10 mM ammonium formate; gradient (min/%B) 0/100 2/100 7.7/70 9.5/40 10.25/30 12.75/100 17/100
Settings: stereoisomer not certain

LC retention time: 1.22 min
Structure (SMILES): O=C(O)C(=O)Cc1ccc(O)cc1 [4-Hydroxyphenylpyruvic acid]
